Z-score data for 45 compounds are collected here from PubChem BioAssay AID1381 (University of Pittsburgh Molecular Library Screening Center, 2008).

The test in a line: inhibitors of GR-EGFP nuclear translocation, primary screen, dynein cargo transport inhibitor project, imaging, high-content, 3617.4 mouse cells (AID 1381). The settings on record: stimulated with dexamethasone, 1 µM.
The mark [1] stands for this setting: measured here: cell count per field, at 20 µM.
[2] abbreviates: measured here: cytoplasmic GR-EGFP intensity, at 20 µM, stronger effect = higher value.
The mark [3] stands for this setting: measured here: nuclear GR-EGFP intensity, at 20 µM, stronger effect = lower value.
Setting [4] is: measured here: cell count per field, at 50 µM.
[5] abbreviates: measured here: cytoplasmic GR-EGFP intensity, at 50 µM, stronger effect = higher value.
Setting [6] is: measured here: nuclear GR-EGFP intensity, at 50 µM, stronger effect = lower value.

The other results are listed elsewhere or left out.

For the compound `CCOP(=O)(Nc1ccc(C)cn1)OCC`, the z-score by setting is: under setting [1], -0.176; under setting [2], -0.278; under setting [3], 0.291.
Turning to `Clc1n[nH]nc1-c1nn[nH][15n]1`, the z-score is, setting by setting: under setting [1], 0.114; under setting [2], -0.186; under setting [3], -0.0217.
For `CC(C)(C)C(=O)NC(Sc1ncccn1)C(Cl)(Cl)Cl` (stereo not given) the same measures were -2.73, -0.0268 and 0.961.
As for `CP(=O)(Nc1cccc(Br)c1)Oc1ccccc1` (stereo not given), the z-score is -0.158 under setting [1], -0.329 under setting [2] and 0.164 under setting [3].
`Cc1cc(C)cc(OP(C)(=O)Nc2ccccn2)c1` (stereo not given): the z-score reads like this: under setting [4], 0.464; under setting [5], -0.247; under setting [6], -0.233.
As to `Cc1ccc(NCCc2c([N+](=O)[O-])cc([N+](=O)[O-])cc2[N+](=O)[O-])cc1`, the z-score is, setting by setting: under setting [1], 0.213; under setting [2], -0.148; under setting [3], -0.553.
On to `Nc1cccc2c([As](=O)(O)O)cccc12`, for which the z-score reads like this: under setting [1], 0.21; under setting [2], -0.175; under setting [3], -0.292.
Taken in the same sequence, the figures for `CCCOP(=S)(Nc1nc(N)cc(=O)[nH]1)OCCC` were -0.499, -0.272 and 0.69.
With `Cc1ccc(C)c(NP(C)(=O)Oc2ccccc2)c1` (stereo not given), the z-score reads like this: under setting [4], 0.428; under setting [5], -0.199; under setting [6], -1.04.
For the compound `CCOP(=O)(Nc1cccc2ccccc12)OCC`, the z-score reads like this: under setting [1], -1.37; under setting [2], -0.0521; under setting [3], 1.69.
In the case of `O=C(OC1CN2CCC1CC2)c1ccc(Cl)cc1` (stereo not given), the z-score is -0.0146 under setting [1], -0.286 under setting [2] and -0.151 under setting [3].
Compound `COc1cc(C(=O)NCC2(N3CCOCC3)CCCCC2)cc(Cl)c1OC(C)C` had a z-score under setting [1] of 0.546, a z-score under setting [2] of -0.238 and a z-score under setting [3] of 0.151.
Compound `O=[As](O)(O)c1cccnc1` displayed a z-score under setting [1] of 0.461, a z-score under setting [2] of -0.29 and a z-score under setting [3] of -0.117.
Taken in the same sequence, the figures for `COc1ccccc1OP(C)(=O)Nc1cccc(Br)c1` (stereo not given) were -0.207, -0.795 and -0.306.
Taken in the same sequence, the figures for `O=[As](O)(c1cccc(O)c1)c1cccc(O)c1` were 0.425, -0.215 and -0.157.
As to `Cc1cccc(OCC(=O)OC2CN3CCC2CC3)c1` (stereo not given), the z-score is 0.0838 under setting [1], -0.15 under setting [2] and 0.257 under setting [3].
For `Cc1cc(C)cc(OP(C)(=O)Nc2ccc(C)cc2C)c1` (stereo not given) the same measures were -0.0741, 0.29 and -0.536.
For `CCOC(=O)c1ccc(NP(C)(=O)Oc2cc(C)cc(C)c2)cc1` (stereo not given) the same measures were 1.21, -0.266 and -0.182.
Taken in the same sequence, the figures for `NC(=O)Nc1ccc([As](=O)(O)O)cc1` were 1.1, -0.791 and -0.506.
Turning to `CN(C(=O)Cc1ccccc1)[C@@H]1CC[C@]2(CCCO2)C[C@H]1N1CCCC1`, the z-score is -0.265 under setting [1], -0.744 under setting [2] and 0.339 under setting [3].
For the compound `CCOP1(=S)c2c(C)nn(CCC#N)c2N=C(c2ccc(F)cc2)N1C` (stereo not given), the z-score under setting [1] was 0.107, the z-score under setting [2] is -0.176 and the z-score under setting [3] was 0.174.
For `O=[N+]([O-])c1ccc2c(c1)nnn2O`, the z-score under setting [4] was 1.34, the z-score under setting [5] was -0.295 and the z-score under setting [6] is -0.214.
`CC1=NCCc2c1[nH]c1ccccc21.O=[N+]([O-])c1cc([N+](=O)[O-])c(O)c([N+](=O)[O-])c1`: the z-score is -0.0409 under setting [1], -0.188 under setting [2] and -0.126 under setting [3].
As to `O=C(O)c1cccc(Nc2c([N+](=O)[O-])cc([N+](=O)[O-])cc2[N+](=O)[O-])c1`, the z-score under setting [1] is -0.0416, the z-score under setting [2] worked out at 0.349 and the z-score under setting [3] is 0.662.
Regarding `CCOP1(=S)c2c(C)nn(CCC#N)c2N=C(c2ccccc2F)N1C` (stereo not given), the z-score is 0.445 under setting [4], -0.253 under setting [5] and 0.5 under setting [6].
For the compound `O=P(Nc1nccs1)(c1ccccc1)c1nc2ccccc2s1` (stereo not given), the z-score reads like this: under setting [1], 0.115; under setting [2], -0.152; under setting [3], -0.313.
For `O=P(Nc1nccs1)(Oc1ccccc1)Oc1ccccc1` the same measures were 0.459, -0.196 and 0.199.
For the compound `CS(=O)(=O)c1cc([N+](=O)[O-])c2no[n+]([O-])c2c1`, the z-score was -0.104 under setting [1], -0.212 under setting [2] and -0.402 under setting [3].
For the compound `O=C(O)COc1ccc([As](=O)(O)O)cc1[N+](=O)[O-]`, the z-score reads like this: under setting [1], 1.16; under setting [2], -0.296; under setting [3], -0.41.
Consider `Nc1ccccc1[As](=O)(O)c1ccccc1`, for which the z-score was 0.282 under setting [1], -0.287 under setting [2] and -0.293 under setting [3].
Taken in the same sequence, the figures for `CCOC(=O)c1ccc(NP(C)(=O)Oc2ccccc2)cc1` (stereo not given) were 0.834, -0.337 and -0.417.
For `ClCCSc1nnc(-c2cccnc2)o1`, the z-score reads like this: under setting [4], 0.281; under setting [5], -0.25; under setting [6], 0.051.
For `COc1ccccc1OP(C)(=O)Nc1ccc(C)cc1` (stereo not given), the z-score runs as follows: under setting [1], -0.001; under setting [2], -0.181; under setting [3], 0.372.
For `Cc1ccc(NP(C)(=O)Oc2ccccc2)c(C)c1` (stereo not given) the same measures were 0.798, -0.29 and 0.287.
Taken in the same sequence, the figures for `CC(C)c1ccc(OP(=O)(Nc2ccccn2)Oc2ccccc2F)cc1` (stereo not given) were 1.11, -0.291 and -0.254.
With `CCN(CC)C(=S)SC(NC=O)C(Cl)(Cl)Cl` (stereo not given), the z-score under setting [1] turned out to be 1.1, the z-score under setting [2] is -0.14 and the z-score under setting [3] was -0.519.
Taken in the same sequence, the figures for `CC(C)NC(=O)NP(=O)(Oc1ccccc1)Oc1ccccc1` were 0.377, -0.359 and 0.049.
For `COc1ccccc1OP(C)(=O)Nc1cc(Cl)ccc1C` (stereo not given) the same measures were 0.0175, -0.213 and 0.269.
Turning to `O=[N+]([O-])c1cc([N+](=O)[O-])c(-c2ccn[nH]2)s1`, the z-score runs as follows: under setting [1], -0.428; under setting [2], 0.599; under setting [3], -0.683.
Taken in the same sequence, the figures for `COc1ccc(OP(C)(=O)Nc2cccc(F)c2)cc1` (stereo not given) were 0.433, -0.392 and -0.215.
In turn, `Cc1cc(C)cc(OP(C)(N)=O)c1` (stereo not given) yielded a z-score under setting [1] of -0.791, a z-score under setting [2] of -0.0694 and a z-score under setting [3] of 0.925.
As to `O=[As](O)(c1ccc(O)cc1)c1ccccc1O`, the z-score runs as follows: under setting [1], 0.129; under setting [2], -0.29; under setting [3], 0.143.
For `C[As](=O)(O)c1cccc(C(=O)O)c1` the same measures were -0.652, -0.228 and 0.654.
Taken in the same sequence, the figures for `CC(C)(C)c1ccc(OP(C)(=O)Nc2ccc(SC(F)(F)F)cc2)cc1` (stereo not given) were 1.13, -0.313 and -0.905.
For the compound `Cc1ccc(OP(=O)(Nc2ccc([N+](=O)[O-])cn2)Oc2ccc(C)cc2)cc1`, the z-score was 0.407 under setting [1], -0.127 under setting [2] and -0.164 under setting [3].
